Among the data in the supplement of paper PMC10849652 are log2 fold change values, retold here.

Sequences of proteins named here, by UniProt entry; tags and fusion partners are left off. A change or cut given only in a name is not applied to a line headed by its entry.
UniProt Q9H2H9: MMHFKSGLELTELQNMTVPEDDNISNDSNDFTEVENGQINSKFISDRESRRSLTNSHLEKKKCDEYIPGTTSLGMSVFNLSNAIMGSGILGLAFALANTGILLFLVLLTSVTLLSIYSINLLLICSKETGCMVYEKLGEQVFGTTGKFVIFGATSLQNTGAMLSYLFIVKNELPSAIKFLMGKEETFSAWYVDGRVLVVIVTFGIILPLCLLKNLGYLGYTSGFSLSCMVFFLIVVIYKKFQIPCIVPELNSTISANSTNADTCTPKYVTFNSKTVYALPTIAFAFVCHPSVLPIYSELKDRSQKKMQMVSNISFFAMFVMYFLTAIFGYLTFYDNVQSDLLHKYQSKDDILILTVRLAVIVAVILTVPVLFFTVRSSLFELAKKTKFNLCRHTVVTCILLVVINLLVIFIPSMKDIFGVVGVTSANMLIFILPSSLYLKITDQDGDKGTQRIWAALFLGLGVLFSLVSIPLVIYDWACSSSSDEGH
UniProt Q9BWU0: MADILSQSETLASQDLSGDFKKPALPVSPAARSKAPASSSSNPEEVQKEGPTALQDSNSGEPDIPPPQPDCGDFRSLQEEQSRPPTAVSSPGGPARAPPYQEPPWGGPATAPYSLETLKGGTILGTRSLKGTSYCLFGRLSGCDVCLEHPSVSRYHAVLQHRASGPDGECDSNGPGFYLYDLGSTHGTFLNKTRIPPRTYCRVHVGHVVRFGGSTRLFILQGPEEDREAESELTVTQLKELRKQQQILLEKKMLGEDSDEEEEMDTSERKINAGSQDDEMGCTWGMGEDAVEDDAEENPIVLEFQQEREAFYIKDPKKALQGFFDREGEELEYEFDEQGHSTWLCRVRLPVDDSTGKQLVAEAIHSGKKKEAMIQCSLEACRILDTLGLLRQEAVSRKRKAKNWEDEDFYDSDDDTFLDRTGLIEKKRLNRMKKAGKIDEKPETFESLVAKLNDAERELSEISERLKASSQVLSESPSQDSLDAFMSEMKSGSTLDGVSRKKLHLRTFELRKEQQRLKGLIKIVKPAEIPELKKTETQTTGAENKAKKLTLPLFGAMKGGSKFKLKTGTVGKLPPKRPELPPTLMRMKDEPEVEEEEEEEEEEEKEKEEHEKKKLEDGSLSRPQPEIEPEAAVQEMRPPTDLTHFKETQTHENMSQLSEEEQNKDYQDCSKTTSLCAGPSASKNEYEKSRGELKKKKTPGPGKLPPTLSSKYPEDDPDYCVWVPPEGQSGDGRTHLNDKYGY
UniProt P05141: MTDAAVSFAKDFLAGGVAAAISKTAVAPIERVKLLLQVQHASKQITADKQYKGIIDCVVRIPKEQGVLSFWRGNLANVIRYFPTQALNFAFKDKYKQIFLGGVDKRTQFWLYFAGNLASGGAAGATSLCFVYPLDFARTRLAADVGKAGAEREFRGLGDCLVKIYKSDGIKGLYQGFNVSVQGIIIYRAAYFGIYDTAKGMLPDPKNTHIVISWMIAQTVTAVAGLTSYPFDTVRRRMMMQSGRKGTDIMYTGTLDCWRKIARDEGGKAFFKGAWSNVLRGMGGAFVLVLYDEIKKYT
UniProt Q02978: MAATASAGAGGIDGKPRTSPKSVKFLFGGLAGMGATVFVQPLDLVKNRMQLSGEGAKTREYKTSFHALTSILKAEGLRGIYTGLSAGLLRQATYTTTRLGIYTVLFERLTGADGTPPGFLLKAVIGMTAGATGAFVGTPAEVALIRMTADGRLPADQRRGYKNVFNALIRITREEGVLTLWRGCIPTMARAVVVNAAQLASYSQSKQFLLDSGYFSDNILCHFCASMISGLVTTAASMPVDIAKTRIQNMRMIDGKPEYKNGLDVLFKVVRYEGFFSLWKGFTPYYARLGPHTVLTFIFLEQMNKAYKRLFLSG
UniProt Q99717: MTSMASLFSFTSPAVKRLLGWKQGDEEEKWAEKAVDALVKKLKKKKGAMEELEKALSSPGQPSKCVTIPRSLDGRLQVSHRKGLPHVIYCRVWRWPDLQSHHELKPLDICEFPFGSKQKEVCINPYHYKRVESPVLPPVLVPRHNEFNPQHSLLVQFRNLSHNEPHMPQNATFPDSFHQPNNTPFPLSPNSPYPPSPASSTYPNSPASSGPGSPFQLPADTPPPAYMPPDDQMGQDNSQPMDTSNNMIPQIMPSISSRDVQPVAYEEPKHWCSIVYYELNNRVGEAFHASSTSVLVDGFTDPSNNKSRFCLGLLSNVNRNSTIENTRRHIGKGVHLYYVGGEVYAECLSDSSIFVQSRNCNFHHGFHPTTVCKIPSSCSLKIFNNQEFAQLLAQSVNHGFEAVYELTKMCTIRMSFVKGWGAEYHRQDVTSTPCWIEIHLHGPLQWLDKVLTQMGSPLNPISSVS
UniProt O00400: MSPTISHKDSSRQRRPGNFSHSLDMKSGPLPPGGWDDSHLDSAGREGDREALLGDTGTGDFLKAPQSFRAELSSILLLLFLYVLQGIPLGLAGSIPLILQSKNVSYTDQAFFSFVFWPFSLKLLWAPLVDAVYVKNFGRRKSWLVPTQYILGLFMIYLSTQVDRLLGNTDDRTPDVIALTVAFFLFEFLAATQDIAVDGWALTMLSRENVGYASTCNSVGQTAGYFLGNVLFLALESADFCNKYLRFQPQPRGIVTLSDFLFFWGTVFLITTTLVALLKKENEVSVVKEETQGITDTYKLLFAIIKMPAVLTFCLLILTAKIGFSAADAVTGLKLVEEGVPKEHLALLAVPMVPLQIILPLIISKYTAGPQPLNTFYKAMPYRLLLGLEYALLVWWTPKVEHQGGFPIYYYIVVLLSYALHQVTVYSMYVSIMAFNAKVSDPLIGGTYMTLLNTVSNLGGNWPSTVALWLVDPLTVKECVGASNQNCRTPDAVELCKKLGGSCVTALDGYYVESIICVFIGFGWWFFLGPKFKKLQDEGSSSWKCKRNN
UniProt Q9H936: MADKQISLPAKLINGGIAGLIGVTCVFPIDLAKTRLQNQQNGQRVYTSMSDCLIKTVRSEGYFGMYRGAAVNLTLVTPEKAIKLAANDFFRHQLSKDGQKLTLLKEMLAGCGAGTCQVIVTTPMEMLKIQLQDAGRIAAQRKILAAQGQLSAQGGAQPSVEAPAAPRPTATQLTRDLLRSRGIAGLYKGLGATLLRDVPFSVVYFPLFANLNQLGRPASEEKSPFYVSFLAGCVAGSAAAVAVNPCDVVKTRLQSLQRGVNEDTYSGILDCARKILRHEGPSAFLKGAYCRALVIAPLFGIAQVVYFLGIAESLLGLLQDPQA
UniProt Q9Y6M7: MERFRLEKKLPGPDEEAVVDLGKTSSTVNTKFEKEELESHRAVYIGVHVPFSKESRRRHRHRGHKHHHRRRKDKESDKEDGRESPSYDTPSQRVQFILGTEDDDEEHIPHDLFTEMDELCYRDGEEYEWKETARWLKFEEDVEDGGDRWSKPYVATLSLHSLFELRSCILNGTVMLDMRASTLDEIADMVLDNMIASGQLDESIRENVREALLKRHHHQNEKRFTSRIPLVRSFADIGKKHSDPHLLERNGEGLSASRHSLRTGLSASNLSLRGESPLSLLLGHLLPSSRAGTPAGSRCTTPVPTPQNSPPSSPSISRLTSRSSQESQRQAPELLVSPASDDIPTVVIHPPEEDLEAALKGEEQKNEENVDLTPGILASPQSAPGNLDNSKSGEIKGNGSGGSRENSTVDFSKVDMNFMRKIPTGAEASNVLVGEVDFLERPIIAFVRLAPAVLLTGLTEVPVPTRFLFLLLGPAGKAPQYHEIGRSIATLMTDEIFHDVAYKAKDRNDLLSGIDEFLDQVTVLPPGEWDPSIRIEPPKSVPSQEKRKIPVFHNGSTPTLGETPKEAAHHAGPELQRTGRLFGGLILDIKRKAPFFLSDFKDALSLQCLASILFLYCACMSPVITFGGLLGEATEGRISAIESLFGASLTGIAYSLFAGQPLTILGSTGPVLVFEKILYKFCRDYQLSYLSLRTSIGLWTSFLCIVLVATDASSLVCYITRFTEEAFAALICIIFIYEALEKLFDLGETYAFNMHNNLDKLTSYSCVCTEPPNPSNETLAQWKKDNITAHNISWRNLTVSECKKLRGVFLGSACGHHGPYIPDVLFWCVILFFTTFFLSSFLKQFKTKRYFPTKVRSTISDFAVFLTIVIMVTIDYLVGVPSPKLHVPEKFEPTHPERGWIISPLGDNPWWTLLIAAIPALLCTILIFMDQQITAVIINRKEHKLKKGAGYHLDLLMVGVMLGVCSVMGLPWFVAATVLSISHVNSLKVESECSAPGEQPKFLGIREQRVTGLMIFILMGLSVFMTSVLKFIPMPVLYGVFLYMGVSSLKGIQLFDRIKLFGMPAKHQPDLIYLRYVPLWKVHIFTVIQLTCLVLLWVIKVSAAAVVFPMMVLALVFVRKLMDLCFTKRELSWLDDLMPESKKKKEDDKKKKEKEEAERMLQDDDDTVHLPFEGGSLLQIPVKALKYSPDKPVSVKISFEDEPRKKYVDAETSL
UniProt Q6KCM7: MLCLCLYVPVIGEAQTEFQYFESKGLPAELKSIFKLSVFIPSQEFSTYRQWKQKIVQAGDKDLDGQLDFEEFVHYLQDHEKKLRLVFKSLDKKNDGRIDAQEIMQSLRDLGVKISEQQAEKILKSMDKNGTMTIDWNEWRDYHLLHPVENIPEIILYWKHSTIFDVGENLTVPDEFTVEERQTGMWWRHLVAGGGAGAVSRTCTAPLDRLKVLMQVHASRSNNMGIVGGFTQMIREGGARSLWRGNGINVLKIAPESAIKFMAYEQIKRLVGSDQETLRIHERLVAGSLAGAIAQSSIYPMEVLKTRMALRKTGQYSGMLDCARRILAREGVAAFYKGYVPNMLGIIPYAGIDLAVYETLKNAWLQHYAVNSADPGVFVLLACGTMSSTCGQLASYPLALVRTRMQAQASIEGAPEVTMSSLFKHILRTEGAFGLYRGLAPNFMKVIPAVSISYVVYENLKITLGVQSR
UniProt Q9Y2E8: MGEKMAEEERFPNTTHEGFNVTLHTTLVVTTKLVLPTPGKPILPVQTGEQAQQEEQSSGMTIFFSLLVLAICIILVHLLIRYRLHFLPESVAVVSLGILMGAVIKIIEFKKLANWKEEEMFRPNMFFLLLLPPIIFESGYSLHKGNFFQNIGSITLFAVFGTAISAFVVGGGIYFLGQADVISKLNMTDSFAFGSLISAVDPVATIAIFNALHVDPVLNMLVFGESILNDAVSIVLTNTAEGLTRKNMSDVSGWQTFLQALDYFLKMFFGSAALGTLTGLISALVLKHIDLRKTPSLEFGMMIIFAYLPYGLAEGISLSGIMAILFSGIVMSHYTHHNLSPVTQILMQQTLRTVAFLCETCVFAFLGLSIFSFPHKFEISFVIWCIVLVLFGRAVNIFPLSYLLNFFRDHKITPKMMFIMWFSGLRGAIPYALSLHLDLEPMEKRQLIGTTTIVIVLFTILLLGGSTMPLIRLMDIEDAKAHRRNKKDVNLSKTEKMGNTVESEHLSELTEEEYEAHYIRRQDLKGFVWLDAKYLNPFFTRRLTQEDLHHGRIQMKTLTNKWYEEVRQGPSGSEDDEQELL
UniProt Q01650: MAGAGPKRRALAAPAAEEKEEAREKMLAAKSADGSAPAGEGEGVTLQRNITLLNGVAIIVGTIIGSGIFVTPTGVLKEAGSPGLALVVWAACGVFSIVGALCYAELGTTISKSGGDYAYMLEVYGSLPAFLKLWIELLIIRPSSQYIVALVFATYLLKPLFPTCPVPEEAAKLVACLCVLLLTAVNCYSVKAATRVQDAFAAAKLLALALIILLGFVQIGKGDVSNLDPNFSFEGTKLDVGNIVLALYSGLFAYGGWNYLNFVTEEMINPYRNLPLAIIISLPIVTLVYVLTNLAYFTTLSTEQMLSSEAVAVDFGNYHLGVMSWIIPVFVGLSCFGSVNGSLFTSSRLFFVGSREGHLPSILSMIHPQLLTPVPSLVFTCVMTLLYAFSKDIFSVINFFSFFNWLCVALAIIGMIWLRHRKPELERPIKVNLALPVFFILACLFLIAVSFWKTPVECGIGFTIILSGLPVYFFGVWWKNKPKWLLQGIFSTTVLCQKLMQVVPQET
UniProt P48029: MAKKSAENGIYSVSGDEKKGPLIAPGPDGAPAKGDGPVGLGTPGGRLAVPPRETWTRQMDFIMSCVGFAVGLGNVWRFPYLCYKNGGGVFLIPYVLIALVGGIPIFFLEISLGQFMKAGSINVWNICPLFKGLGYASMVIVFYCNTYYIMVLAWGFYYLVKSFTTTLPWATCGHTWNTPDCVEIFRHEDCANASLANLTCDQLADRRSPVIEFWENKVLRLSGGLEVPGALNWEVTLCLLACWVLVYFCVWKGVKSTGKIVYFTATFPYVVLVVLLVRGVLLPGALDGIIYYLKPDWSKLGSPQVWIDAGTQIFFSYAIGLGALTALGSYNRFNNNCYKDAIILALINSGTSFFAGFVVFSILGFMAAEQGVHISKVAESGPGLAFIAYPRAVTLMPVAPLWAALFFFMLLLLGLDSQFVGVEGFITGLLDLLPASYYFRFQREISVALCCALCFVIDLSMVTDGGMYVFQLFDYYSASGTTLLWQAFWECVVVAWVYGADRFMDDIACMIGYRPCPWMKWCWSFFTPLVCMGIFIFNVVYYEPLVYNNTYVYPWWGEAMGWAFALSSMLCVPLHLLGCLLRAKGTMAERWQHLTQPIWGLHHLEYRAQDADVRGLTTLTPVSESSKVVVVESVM

The other results are listed elsewhere or left out.

Compound in one experiment: Cn1cc(-c2ccc3c(c2)CCN3C(=O)Cc2cccc(C(F)(F)F)c2)c2c(N)ncnc21
The experiment is described as follows: log2 fold change, soluble protein after heating vs DMSO (PISA); higher = thermal stabilisation; K562 lysate, 10 uM; active = over 0.2 and 3.5 SD of the protein, either way, in both replicates (recomputed). The method in brief:
(§1)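 K562 pellets were dounce-homogenised in PBS pH 7.4 containing 1 mM MgCl2, and the crude extract, at 1 mg/mL protein, was exposed to 10 μM compound for 30 min. Aliquots were heated for 3 min across 48°C-58°C, pooled, brought to 0.5% NP-40 at 4°C and spun at 21,000xg for 90 min, with the supernatant taken as soluble protein. TMTpro 16plex LC-MS/MS with equalised channel sums quantified that protein. Values are log-two fold changes in thermal stability relative to solvent controls, taken from duplicates.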
For the target SLC38A9 (UniProt Q8NBW4), the log2 fold change was inactive: -0.023.

With SLU7 (UniProt O95391), the log2 fold change was inactive: 0.013.

Take SLC25A24 (UniProt Q6NUK1): the log2 fold change is inactive: 0.008.

For the target SLC3A2 isoform 3 (UniProt P08195), the log2 fold change was inactive: -0.007.

With SLC38A1 (UniProt Q9H2H9), the log2 fold change is inactive: -0.041.

Consider SLC4A1AP (UniProt Q9BWU0), for which the log2 fold change was inactive: -0.002.

Consider SLC25A5 (UniProt P05141), for which the log2 fold change is inactive: 0.

As to SLC35F6 (UniProt Q8N357), the log2 fold change is inactive: 0.108.

SLC25A11 (UniProt Q02978): the log2 fold change was inactive: -0.025.

For the target SLC66A2 (UniProt Q8N2U9), the log2 fold change is inactive: -0.064.

With SLC40A1 (UniProt Q9NP59), the log2 fold change was inactive: -0.02.

On to SLC25A39 (UniProt Q9BZJ4), for which the log2 fold change is inactive: -0.306.

SLC3A2 (UniProt F5GZS6): the log2 fold change is inactive: -0.038.

Turning to SLC2A3 (UniProt P11169), the log2 fold change was inactive: 0.009.

On to SMAD5 (UniProt Q99717), for which the log2 fold change was inactive: -0.041.

Turning to SLC48A1 (UniProt Q6P1K1), the log2 fold change was inactive: 0.053.

As for SLC33A1 (UniProt O00400), the log2 fold change was inactive: -0.07.

For SLC25A33 (UniProt Q9BSK2), the log2 fold change is inactive: 0.018.

In the case of SLC25A22 (UniProt Q9H936), the log2 fold change was inactive: 0.019.

With SLC39A10 (UniProt Q9ULF5), the log2 fold change was inactive: -0.017.

SLC25A46 (UniProt Q96AG3): the log2 fold change was inactive: -0.01.

For the target SLC4A7 isoform 7 (UniProt Q9Y6M7), the log2 fold change is inactive: 0.02.

On to SLC25A25 isoform 3 (UniProt Q6KCM7), for which the log2 fold change is inactive: 0.031.

For SLC35F2 (UniProt Q8IXU6), the log2 fold change was inactive: 0.006.

On to SLC9A8 isoform 2 (UniProt Q9Y2E8), for which the log2 fold change is inactive: 0.046.

For the target SLC39A14 (UniProt Q15043), the log2 fold change was inactive: 0.013.

For the target SMAP (UniProt O00193), the log2 fold change was inactive: 0.013.

Consider SLC25A51 (UniProt Q9H1U9), for which the log2 fold change is inactive: -0.042.

Take SLC7A5 (UniProt Q01650): the log2 fold change was inactive: 0.008.

In the case of SLC38A10 (UniProt Q9HBR0), the log2 fold change is inactive: -0.031.

Consider SLC25A40 (UniProt Q8TBP6), for which the log2 fold change was inactive: 0.008.

Turning to SLC6A8 isoform 2 (UniProt P48029), the log2 fold change is inactive: -0.075.

Compound in another experiment: Cn1cc(CNCC2CCN(c3ncc(C(=O)NO)cn3)CC2)c2ccccc21 [quisinostat]
The description is as above. The method in brief: as §1
As to SLC39A7 (UniProt Q92504), the log2 fold change was inactive: -0.06.

SLC38A9 (UniProt Q8NBW4): the log2 fold change was inactive: -0.082.

As to SLU7 (UniProt O95391), the log2 fold change was inactive: 0.244.

In the case of SLC30A6 isoform 2 (UniProt Q6NXT4), the log2 fold change was inactive: -0.048.

For SLC25A24 (UniProt Q6NUK1), the log2 fold change was inactive: 0.006.

For SLC3A2 isoform 3 (UniProt P08195), the log2 fold change is inactive: -0.004.

Consider SLC38A1 (UniProt Q9H2H9), for which the log2 fold change is inactive: -0.123.

Regarding SLC4A1AP (UniProt Q9BWU0), the log2 fold change was inactive: -0.022.

Consider SLC25A5 (UniProt P05141), for which the log2 fold change was inactive: 0.078.

In the case of SLC35F6 (UniProt Q8N357), the log2 fold change was inactive: -0.019.

As for SLC25A11 (UniProt Q02978), the log2 fold change is inactive: -0.042.

Regarding SLC40A1 (UniProt Q9NP59), the log2 fold change was inactive: -0.079.

For the target SLC39A8 (UniProt Q9C0K1), the log2 fold change was inactive: -0.078.

Turning to SLC2A3 (UniProt P11169), the log2 fold change is inactive: 0.008.

On to SLC66A1 (UniProt Q6ZP29), for which the log2 fold change is inactive: 0.132.

For the target SMAD5 (UniProt Q99717), the log2 fold change is inactive: -0.079.

Consider SLC33A1 (UniProt O00400), for which the log2 fold change was inactive: -0.047.

Take SLC25A33 (UniProt Q9BSK2): the log2 fold change was inactive: 0.04.

With SLC25A22 (UniProt Q9H936), the log2 fold change is inactive: 0.01.

On to SLC35C1 (UniProt Q96A29), for which the log2 fold change is inactive: -0.084.

On to SLC39A10 (UniProt Q9ULF5), for which the log2 fold change was inactive: 0.046.

SLC25A46 (UniProt Q96AG3): the log2 fold change was inactive: -0.063.

As for SLC4A7 isoform 7 (UniProt Q9Y6M7), the log2 fold change is inactive: -0.069.

In the case of SLC25A25 isoform 3 (UniProt Q6KCM7), the log2 fold change was inactive: -0.038.

As for SLC35B4 (UniProt Q969S0), the log2 fold change is inactive: -0.165.

For the target SLC9A8 isoform 2 (UniProt Q9Y2E8), the log2 fold change was inactive: -0.041.

As to SLC39A14 (UniProt Q15043), the log2 fold change is inactive: -0.018.

With SMAP (UniProt O00193), the log2 fold change was inactive: 0.121.

As to SLC25A51 (UniProt Q9H1U9), the log2 fold change is inactive: -0.024.

On to SLC7A5 (UniProt Q01650), for which the log2 fold change was inactive: -0.106.

Take SLC38A10 (UniProt Q9HBR0): the log2 fold change was inactive: -0.013.

SLC25A40 (UniProt Q8TBP6): the log2 fold change was inactive: -0.016.

As to SLC6A8 isoform 2 (UniProt P48029), the log2 fold change was inactive: -0.153.

Compound in a further experiment: Cn1cncc1[C@@](N)(c1ccc(Cl)cc1)c1ccc2c(c1)c(-c1cccc(Cl)c1)cc(=O)n2C [tipifarnib]
The experiment is described as above. The method in brief: as §1
As for SLC39A7 (UniProt Q92504), the log2 fold change is inactive: -0.057.

For the target SLC38A9 (UniProt Q8NBW4), the log2 fold change was inactive: -0.049.

Turning to SLU7 (UniProt O95391), the log2 fold change was inactive: -0.029.

For SLC30A6 isoform 2 (UniProt Q6NXT4), the log2 fold change was inactive: -0.071.

As to SLC25A24 (UniProt Q6NUK1), the log2 fold change was inactive: -0.007.

Turning to SLC3A2 isoform 3 (UniProt P08195), the log2 fold change was inactive: 0.006.

SLC38A1 (UniProt Q9H2H9): the log2 fold change was inactive: -0.032.

With SLC4A1AP (UniProt Q9BWU0), the log2 fold change was inactive: -0.024.

On to SLC25A5 (UniProt P05141), for which the log2 fold change was inactive: 0.011.

Take SLC35F6 (UniProt Q8N357): the log2 fold change was inactive: -0.199.

With SLC25A11 (UniProt Q02978), the log2 fold change is inactive: -0.01.

Take SLC66A2 (UniProt Q8N2U9): the log2 fold change was inactive: -0.029.

Regarding SLC40A1 (UniProt Q9NP59), the log2 fold change was inactive: -0.118.

Regarding SLC25A39 (UniProt Q9BZJ4), the log2 fold change is inactive: -0.241.

Consider SLC39A8 (UniProt Q9C0K1), for which the log2 fold change was inactive: 0.02.

Regarding SLC3A2 (UniProt F5GZS6), the log2 fold change is inactive: -0.035.

Consider SLC2A3 (UniProt P11169), for which the log2 fold change was inactive: 0.018.

As for SLC66A1 (UniProt Q6ZP29), the log2 fold change was inactive: 0.097.

Turning to SMAD5 (UniProt Q99717), the log2 fold change is inactive: 0.277.

SLC48A1 (UniProt Q6P1K1): the log2 fold change is inactive: 0.313.

For SLC33A1 (UniProt O00400), the log2 fold change was inactive: -0.071.

Regarding SLC25A33 (UniProt Q9BSK2), the log2 fold change was inactive: 0.038.

Regarding SLC25A22 (UniProt Q9H936), the log2 fold change was inactive: 0.004.

In the case of SLC35C1 (UniProt Q96A29), the log2 fold change was inactive: -0.051.

In the case of SLC39A10 (UniProt Q9ULF5), the log2 fold change is inactive: 0.003.

Regarding SLC25A46 (UniProt Q96AG3), the log2 fold change was inactive: 0.063.

With SLC4A7 isoform 7 (UniProt Q9Y6M7), the log2 fold change is inactive: -0.035.

As to SLC25A25 isoform 3 (UniProt Q6KCM7), the log2 fold change was inactive: -0.006.

On to SLC35F2 (UniProt Q8IXU6), for which the log2 fold change is inactive: -0.035.

In the case of SLC35B4 (UniProt Q969S0), the log2 fold change was inactive: -0.094.

On to SLC9A8 isoform 2 (UniProt Q9Y2E8), for which the log2 fold change is inactive: 0.067.

Turning to SLC39A14 (UniProt Q15043), the log2 fold change is inactive: -0.042.

For the target SMAP (UniProt O00193), the log2 fold change was inactive: 0.028.

Turning to SLC25A51 (UniProt Q9H1U9), the log2 fold change is inactive: -0.022.

Turning to SLC7A5 (UniProt Q01650), the log2 fold change was inactive: 0.003.

SLC38A10 (UniProt Q9HBR0): the log2 fold change was inactive: 0.047.

Regarding SLC25A40 (UniProt Q8TBP6), the log2 fold change is inactive: 0.008.

Turning to SLC6A8 isoform 2 (UniProt P48029), the log2 fold change is inactive: 0.001.
